Measured values published in paper PMC9512010.
Results are given in words; binding and its absence hold for the method and conditions named. In cells and extracts the contact can be indirect. Binding calls can cover weak binding; strength is not graded here. Blank lines part the entries; values can stand above or below the molecule they belong to.

Key:
[1] = biological target: T1, K+ channel isoform Kv4.3 (rat (endogenous in optic nerve)) (UniProt Q62897); assay: co-IP; pre-cleared adult rat optic nerve lysate immunoprecipitated with rabbit polyclonal anti-Kv4.3 or mouse monoclonal anti-CaMKII antibody (Catch and Release v2.0), eluted non-denatured, Western blot; reciprocal
T1 sequence: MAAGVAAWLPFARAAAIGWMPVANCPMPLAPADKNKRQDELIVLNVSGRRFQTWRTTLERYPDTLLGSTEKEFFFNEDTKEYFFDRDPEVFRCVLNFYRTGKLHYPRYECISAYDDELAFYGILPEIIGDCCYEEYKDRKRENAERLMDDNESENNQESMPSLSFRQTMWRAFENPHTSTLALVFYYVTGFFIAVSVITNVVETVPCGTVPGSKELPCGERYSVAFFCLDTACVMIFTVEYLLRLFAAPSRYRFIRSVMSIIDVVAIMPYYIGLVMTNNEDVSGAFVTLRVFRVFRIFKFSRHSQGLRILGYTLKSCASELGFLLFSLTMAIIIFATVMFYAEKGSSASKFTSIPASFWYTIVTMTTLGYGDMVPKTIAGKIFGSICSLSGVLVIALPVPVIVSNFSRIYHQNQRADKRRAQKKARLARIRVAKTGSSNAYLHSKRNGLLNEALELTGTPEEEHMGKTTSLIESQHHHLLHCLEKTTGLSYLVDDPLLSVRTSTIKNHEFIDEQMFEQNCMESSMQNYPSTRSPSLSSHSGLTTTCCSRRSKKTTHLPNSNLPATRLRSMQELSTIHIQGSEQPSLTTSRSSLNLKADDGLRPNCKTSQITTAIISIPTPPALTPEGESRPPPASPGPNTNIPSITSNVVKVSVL

[2] = biological target: Calcium/calmodulin-dependent protein kinase II (rat (endogenous in optic nerve)); assay: as above

binding [1]: binds
Molecule: Calcium/calmodulin-dependent protein kinase II (rat (endogenous in optic nerve)) (enzyme)

binding [2]: binds
B1: K+ channel isoform Kv4.3 (protein, UniProt Q62897 1-655)
chain: T1 sequence
